Source: ChEMBL document CHEMBL1146292, “Dual serotonin transporter/histamine H3 ligands: Optimization of the H3 pharmacophore” (Bioorg Med Chem Lett, 2007)

The chains behind the UniProt entries cited, without tags or fusion partners. Where a name states a change or a piece, a line headed by the entry shows the natural chain unless it says otherwise.
UniProt Q9Y5N1: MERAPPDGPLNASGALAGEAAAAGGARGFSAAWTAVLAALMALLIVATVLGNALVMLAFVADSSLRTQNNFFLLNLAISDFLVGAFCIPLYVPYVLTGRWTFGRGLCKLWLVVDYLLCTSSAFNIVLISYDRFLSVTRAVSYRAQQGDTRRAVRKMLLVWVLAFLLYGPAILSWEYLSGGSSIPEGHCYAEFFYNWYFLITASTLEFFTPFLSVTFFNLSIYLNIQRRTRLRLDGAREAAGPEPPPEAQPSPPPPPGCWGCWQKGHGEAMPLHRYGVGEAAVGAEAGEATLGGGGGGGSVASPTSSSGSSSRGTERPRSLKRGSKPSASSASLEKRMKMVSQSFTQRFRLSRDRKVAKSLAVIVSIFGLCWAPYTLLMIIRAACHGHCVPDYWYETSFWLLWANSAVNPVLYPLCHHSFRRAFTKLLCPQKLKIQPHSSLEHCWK

Target: Histamine H3 receptor (Homo sapiens, UniProt Q9Y5N1)
Assay: Binding affinity to human histamine H3 receptor
Method in brief: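 Means of at least three independent experiments, each run in triplicate; standard error of the mean reported.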

CNCCC(Oc1ccc(C(F)(F)F)cc1)c1ccccc1 (stereo unspecified) [FLUOXETINE]
Ki: 7.3 µM
